For 55 compounds, AC50 results are on record in PubChem BioAssay AID1487 (National Center for Advancing Translational Sciences (NCATS), 2009).

A short description of the assay: qHTS Assay for Modulators of Lamin A Splicing. As to conditions: HeLa LMNA splicing GFP/RFP minigene ratio, 48 h. In a few lines: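 Read-out is the ratio of GFP to DsRed2 object intensity, acquired by 488 nm laser-scanning cytometry on HeLa lamin A-EGFP minigene reporter cells. Compound incubation 48 hrs at 37 °C in Opti-MEM with 2% FBS; DMSO 0.5% final.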
A general note: qHTS replaces the single test concentration by a dilution series.

Setting [1] is: measured here: GFP splicing reporter channel.
The mark [2] stands for this setting: measured here: RFP viability control channel.

The structures appear in SMILES notation. This is one part of the list. The main result of the screen is listed elsewhere. These columns were measured beside it and carry no call. Most of these compounds were active or inconclusive in the main read-out, so they are no random draw. Potencies come from curve fits of mixed quality, noted in brackets.

As for `CC1CCN(S(=O)(=O)c2ccc3c(c2)c(=O)c(C(=O)NCc2ccccc2Cl)cn3C)CC1`, the half-maximal activity concentration (AC50) – broadly, the concentration giving half of the maximal activity seen – runs as follows: under setting [1], 1.12 µM [falling, full curve, poor fit]; under setting [2], 0.891 µM [falling, full curve].

As to `CCN(CC1COc2ccccc2O1)C(=S)Nc1ccc(F)cc1` (stereo not given), the AC50 runs as follows: under setting [1], 10 µM [rising, partial curve, poor fit]; under setting [2], 12.6 µM [rising, partial curve].

As for `CCCCC(=O)NC(c1cccs1)c1cc(Cl)c2cccnc2c1O` (stereo not given), the AC50 is 2.82 µM [falling, single point] under setting [1] and 3.55 µM [falling, partial curve] under setting [2].

Consider `COc1ccc(C2=NN(c3nc4ccccc4s3)C(=O)C2)cc1`, for which the AC50 under setting [1] was 22.4 µM [rising, partial curve] and the concentration at half-maximal activity (AC50) under setting [2] is 14.1 µM [rising, single point].

For the compound `Cc1ccc(C(=O)CSC2=C(C#N)C(c3ccco3)C3=C(CC(C)(C)CC3=O)N2)cc1` (stereo not given), the AC50 reads like this: under setting [1], 14.1 µM [rising, single point]; under setting [2], 35.5 µM [rising, single point].

Take `C/C(=N\NC(=O)C(N)=O)c1ccc(NC(=O)c2cccs2)cc1`: the AC50 under setting [2] is 0.00501 µM [falling, full curve, poor fit].

`Cc1cccc(S(=O)(=O)Nc2cccc(-c3cn4ccsc4n3)c2)c1`: the AC50 reads like this: under setting [1], 8.91 µM [rising, partial curve, poor fit]; under setting [2], 14.1 µM [rising, partial curve].

In the case of `CCc1ccc(OCC(=O)N(Cc2cccs2)c2ccc(Cl)cc2)cc1`, the AC50 under setting [2] is 35.5 µM [rising, single point].

Turning to `Cc1ccsc1/C=N/NC(=O)c1cccc(S(=O)(=O)Nc2ccccc2Cl)c1`, the AC50 under setting [1] is 6.31 µM [falling, single point].

With `Cc1cc(OCCOCCN(C)CCO)cc(C)c1Cl`, the AC50 was 2.82 µM [rising, partial curve] under setting [1] and 1.26 µM [rising, full curve, poor fit] under setting [2].

As to `CCOC(=O)c1cc(CC)sc1/N=C/c1c(O)ccc2ccccc12`, under setting [2], the AC50 was 12.6 µM [rising, partial curve].

For the compound `O=C(Cn1ccc(C(F)(F)F)n1)N/N=C/c1ccc(N2CCOCC2)cc1`, the AC50 under setting [1] is 0.0112 µM [rising, partial curve, poor fit].

For the compound `CN1CC(c2ccc(Cl)c(Cl)c2)[C@@]2(COc3ccccc3C2=O)[C@@]12C(=O)Nc1ccccc12` (stereo not given in full), under setting [2], the AC50 was 35.5 µM [rising, single point].

On to `c1ccc(CSc2ncnc3c2cnn3Cc2ccccc2)cc1`, for which the AC50 under setting [2] is 20 µM [rising, single point].

For the compound `COc1ccc(NC(=S)NNC(=O)CCn2cc([N+](=O)[O-])cn2)cc1`, the half-maximal activity concentration (AC50) under setting [2] was 0.00501 µM [rising, full curve].

On to `CC1CCc2sc(C(=O)OCC(=O)NCc3ccccc3)cc2C1` (stereo not given), for which the AC50 under setting [2] was 17.8 µM [rising, single point].

Take `Cc1[nH]c2ccccc2c1-c1nc2ccccc2[nH]1`: under setting [2], the AC50 was 12.6 µM [rising, partial curve].

On to `CCOc1cc(C(=O)Nc2cc(C)ccc2OC)ccc1OCC(=O)N1CCCCC1`, for which the AC50 under setting [1] is 10 µM [rising, partial curve, poor fit].

For the compound `CCOC(=O)N1CCC(n2c(SCC(=O)NCc3ccco3)nc3ccsc3c2=O)CC1`, the AC50 under setting [2] was 11.2 µM [rising, single point].

With `Cc1ccc(NC(=O)CSc2nc3ccccc3c3nc(CCn4cncc4C)nn23)cc1F`, the AC50 runs as follows: under setting [1], 3.16 µM [falling, partial curve]; under setting [2], 25.1 µM [falling, partial curve, poor fit].

As for `CCOc1cccc2sc(N(Cc3cccnc3)C(=O)C3CCCCC3)nc12`, the AC50 under setting [2] is 35.5 µM [rising, single point].

For `O=C1C2CCCN2C(c2ccccc2F)N1c1ccc(Cl)cc1` (stereo not given), the AC50 under setting [1] is 35.5 µM [falling, single point].

For `COc1ccc(CN(C2CCCC2)S(=O)(=O)c2ccc(-n3cnnn3)cc2)cc1OC`, the AC50 was 31.6 µM [rising, single point] under setting [1] and 35.5 µM [rising, single point] under setting [2].

For `Cc1ccc(C2=NCCNC2=O)c(C)c1`, under setting [2], the AC50 is 35.5 µM [falling, partial curve, poor fit].

In the case of `O=C1c2cccnc2Oc2ccc(Cl)cc2N1Cc1ccc(F)cc1`, the AC50 under setting [2] was 0.224 µM [rising, full curve, poor fit].

For `Cc1occc(=O)c1OC(=O)Nc1ccc(Cl)c(Cl)c1`, the AC50 was 17.8 µM [rising, single point] under setting [1] and 28.2 µM [rising, single point] under setting [2].

In the case of `O=S(=O)(Cc1noc(-c2ccc(Cl)cc2)n1)Cc1ccco1`, the AC50 under setting [2] was 6.31 µM [rising, single point].

With `CCc1ccc(OCC(=O)N/N=C/c2ccc(OS(=O)(=O)c3ccc(C)cc3)c(OC)c2)cc1`, the AC50 under setting [2] was 11.2 µM [rising, partial curve, poor fit].

Turning to `COc1ccc(C(=O)/C=C/c2ccccc2C(F)(F)F)cc1`, the AC50 runs as follows: under setting [1], 35.5 µM [falling, single point]; under setting [2], 35.5 µM [falling, single point].

Regarding `CCCS(=O)(=O)c1ncc(Cl)c(C(=O)N2CCN(c3ccc(OC)cc3)CC2)n1`, the AC50 is 5.62 µM [falling, partial curve] under setting [1] and 3.98 µM [falling, full curve, poor fit] under setting [2].

As for `COc1ccc(CCn2nnnc2C(C(C)C)N2CCN(c3ncccn3)CC2)cc1OC` (stereo not given), the half-maximal activity concentration (AC50) under setting [2] is 5.62 µM [rising, single point].

On to `Cc1ccc(C(=O)OCC(=O)c2c(N)n(C)c(=O)n(C)c2=O)cc1S(=O)(=O)N1CCCCC1`, for which the AC50 is 3.98 µM [rising, partial curve] under setting [1] and 14.1 µM [rising, partial curve] under setting [2].

`CC1CCN(c2ccc(NC(=O)c3cccc(Cl)c3)cc2C(=O)O)CC1`: the AC50 under setting [2] is 7.08 µM [falling, partial curve].

Take `O=S(=O)(Nn1cnnc1)c1ccc2ccccc2c1`: under setting [2], the AC50 is 0.112 µM [falling, full curve, poor fit].

For the compound `CCOC(=O)c1c(NC(=O)c2cccs2)sc2c1CC(C)(C)OC2`, under setting [2], the AC50 was 17.8 µM [rising, single point].

`COc1ccccc1Oc1ccc(S(=O)(=O)NCc2ccccn2)cc1`: the AC50 by setting is: under setting [1], 3.16 µM [rising, full curve]; under setting [2], 7.94 µM [rising, partial curve].

Regarding `CC(=O)Nc1ccc(NC(=O)c2ccccc2CCc2ccccc2)cc1`, the half-maximal activity concentration (AC50) under setting [2] is 0.251 µM [rising, full curve, poor fit].

`COc1ccccc1NC(=O)c1ccc(Cl)c(S(=O)(=O)N2CCOCC2)c1`: the AC50 under setting [2] was 35.5 µM [rising, single point].

With `COc1ccc(NC(=O)c2c(NC(=O)CNCc3ccco3)sc3c2CCC3)cc1`, the AC50 under setting [2] was 7.94 µM [rising, partial curve, poor fit].

As to `COc1ccc(OCC(=O)NCC2(N3CCN(C)CC3)CCCCC2)cc1`, the AC50 under setting [1] was 1.41 µM [falling, full curve] and the AC50 under setting [2] is 2.82 µM [falling, partial curve].

For `CN(C(=O)COC(=O)C1c2ccccc2Oc2ccccc21)C1CCS(=O)(=O)C1` (stereo not given), the AC50 under setting [2] was 12.6 µM [falling, partial curve, poor fit].

For the compound `Cc1ccc(O)c(/C=N/NC(=O)C2=NNC(c3ccccc3)(c3ccccc3)C2)c1`, the AC50 under setting [2] was 14.1 µM [rising, single point].

With `COC(=O)N/N=C/C1=C[N+](=O)c2ccccc2[N+]1=O`, the AC50 is, setting by setting: under setting [1], 14.1 µM [rising, partial curve, poor fit]; under setting [2], 2.82 µM [rising, full curve, poor fit].

Turning to `Cn1nnnc1SCC(=O)N1CCN(c2ccc(Cl)cc2)CC1`, under setting [2], the AC50 was 15.8 µM [rising, single point].

On to `O=C(c1nc(-c2ccc(Cl)cc2)n2c1CCCCC2)N1CCN(c2ccccc2F)CC1`, for which the AC50 under setting [2] was 0.0501 µM [rising, full curve, poor fit].

In the case of `COc1ccccc1NC(=O)N(Cc1ccco1)Cc1cc2cc(C)cc(C)c2[nH]c1=O`, under setting [2], the AC50 is 1.58 µM [rising, partial curve, poor fit].

As to `COc1ccc(S(=O)(=O)Nc2cccc(-c3ccc(N4CCOCC4)nn3)c2)cc1F`, the AC50 under setting [1] is 6.31 µM [falling, partial curve].

On to `COc1ccccc1NS(=O)(=O)c1cccc(NC(=O)Nc2ccccc2)c1`, for which the AC50 is 12.6 µM [rising, partial curve] under setting [1] and 12.6 µM [rising, partial curve] under setting [2].

Consider `Cc1ccc(CS(=O)(=O)c2cn(CC(=O)N(C)c3ccccc3)c3ccccc23)cc1`, for which the AC50 under setting [1] is 2.24 µM [falling, partial curve] and the AC50 under setting [2] is 11.2 µM [falling, partial curve].

In the case of `Cc1ccc(N=Cc2cccc(O)c2O)c(C)c1`, the AC50 is, setting by setting: under setting [1], 2.82 µM [falling, partial curve, poor fit]; under setting [2], 2.51 µM [falling, partial curve].

Take `C[C@H]1Cc2c(-c3ccccc3)nc3c(c2CO1)CN(C(=O)C1CCCCC1)CC3`: the AC50 under setting [2] is 1 µM [rising, partial curve, poor fit].

For the compound `O=C1C2C3c4ccccc4C(c4ccccc43)C2C(=O)N1Cc1ccccn1` (stereo not given), under setting [2], the AC50 is 0.316 µM [falling, full curve].

`COc1ccc(N(Cc2cccs2)C(=O)c2ccccc2C)cc1`: the AC50 under setting [1] was 3.98 µM [rising, full curve, poor fit].

Turning to `Cn1c(SCCOc2ccccc2Cl)nnc1-c1cccs1`, the AC50 under setting [2] is 35.5 µM [rising, single point].

`Cc1[nH]c(=O)c(C(=O)/C=C/c2ccccc2)c2c1CCCC2`: the AC50 reads like this: under setting [1], 11.2 µM [falling, partial curve]; under setting [2], 2 µM [rising, full curve].
